Holding throughout (assay): co-IP; transfected NSCLC cells (H1299, A549) lysed in NP40 lysis buffer; protein G agarose beads and indicated antibodies, 4 °C, 8 h; western blot; in some panels cells treated with NAM and TSA or co-transfected with HDAC4
Background: Immunoblotting shows a protein as a band on a membrane.

By UniProt entry, the sequences of proteins in these tests, tags left out. Where a name states a change or a piece, a line headed by the entry shows the natural chain unless it says otherwise. Chains listed by the source or under a name are the forms on record and can include a tag or linker.
V5-tagged GAC (glutaminase C), wild type (O94925, form named): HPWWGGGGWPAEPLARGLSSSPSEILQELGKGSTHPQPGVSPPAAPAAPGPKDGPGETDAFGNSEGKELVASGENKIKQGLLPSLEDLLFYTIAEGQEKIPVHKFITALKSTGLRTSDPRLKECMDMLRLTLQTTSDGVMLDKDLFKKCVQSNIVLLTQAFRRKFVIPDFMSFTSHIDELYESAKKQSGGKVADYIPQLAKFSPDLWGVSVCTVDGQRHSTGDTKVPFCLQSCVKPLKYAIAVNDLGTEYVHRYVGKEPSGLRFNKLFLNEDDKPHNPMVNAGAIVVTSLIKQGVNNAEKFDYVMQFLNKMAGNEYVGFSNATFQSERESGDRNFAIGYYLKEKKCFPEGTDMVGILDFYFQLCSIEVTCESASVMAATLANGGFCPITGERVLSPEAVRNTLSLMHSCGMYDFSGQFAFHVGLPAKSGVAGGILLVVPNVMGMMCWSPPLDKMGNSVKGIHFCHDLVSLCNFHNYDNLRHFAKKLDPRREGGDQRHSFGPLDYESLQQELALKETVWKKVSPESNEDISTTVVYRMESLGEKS
V5-tagged GAC K311Q (acetylation-mimetic mutant) (O94925, form named): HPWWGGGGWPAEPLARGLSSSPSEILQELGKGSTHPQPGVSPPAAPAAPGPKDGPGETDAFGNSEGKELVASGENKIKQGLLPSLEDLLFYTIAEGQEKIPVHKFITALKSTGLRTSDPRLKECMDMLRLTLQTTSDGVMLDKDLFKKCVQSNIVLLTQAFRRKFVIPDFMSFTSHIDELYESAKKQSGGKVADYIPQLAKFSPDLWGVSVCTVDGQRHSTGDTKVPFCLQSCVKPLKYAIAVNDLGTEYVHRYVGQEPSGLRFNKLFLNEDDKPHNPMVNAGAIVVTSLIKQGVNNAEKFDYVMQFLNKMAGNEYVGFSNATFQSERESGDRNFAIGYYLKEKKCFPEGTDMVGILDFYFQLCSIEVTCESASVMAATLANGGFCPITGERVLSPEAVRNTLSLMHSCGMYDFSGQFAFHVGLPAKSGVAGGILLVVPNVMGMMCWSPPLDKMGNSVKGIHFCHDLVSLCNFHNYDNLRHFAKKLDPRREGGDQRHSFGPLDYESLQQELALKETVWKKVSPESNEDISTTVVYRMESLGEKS
UniProt Q9UBN7: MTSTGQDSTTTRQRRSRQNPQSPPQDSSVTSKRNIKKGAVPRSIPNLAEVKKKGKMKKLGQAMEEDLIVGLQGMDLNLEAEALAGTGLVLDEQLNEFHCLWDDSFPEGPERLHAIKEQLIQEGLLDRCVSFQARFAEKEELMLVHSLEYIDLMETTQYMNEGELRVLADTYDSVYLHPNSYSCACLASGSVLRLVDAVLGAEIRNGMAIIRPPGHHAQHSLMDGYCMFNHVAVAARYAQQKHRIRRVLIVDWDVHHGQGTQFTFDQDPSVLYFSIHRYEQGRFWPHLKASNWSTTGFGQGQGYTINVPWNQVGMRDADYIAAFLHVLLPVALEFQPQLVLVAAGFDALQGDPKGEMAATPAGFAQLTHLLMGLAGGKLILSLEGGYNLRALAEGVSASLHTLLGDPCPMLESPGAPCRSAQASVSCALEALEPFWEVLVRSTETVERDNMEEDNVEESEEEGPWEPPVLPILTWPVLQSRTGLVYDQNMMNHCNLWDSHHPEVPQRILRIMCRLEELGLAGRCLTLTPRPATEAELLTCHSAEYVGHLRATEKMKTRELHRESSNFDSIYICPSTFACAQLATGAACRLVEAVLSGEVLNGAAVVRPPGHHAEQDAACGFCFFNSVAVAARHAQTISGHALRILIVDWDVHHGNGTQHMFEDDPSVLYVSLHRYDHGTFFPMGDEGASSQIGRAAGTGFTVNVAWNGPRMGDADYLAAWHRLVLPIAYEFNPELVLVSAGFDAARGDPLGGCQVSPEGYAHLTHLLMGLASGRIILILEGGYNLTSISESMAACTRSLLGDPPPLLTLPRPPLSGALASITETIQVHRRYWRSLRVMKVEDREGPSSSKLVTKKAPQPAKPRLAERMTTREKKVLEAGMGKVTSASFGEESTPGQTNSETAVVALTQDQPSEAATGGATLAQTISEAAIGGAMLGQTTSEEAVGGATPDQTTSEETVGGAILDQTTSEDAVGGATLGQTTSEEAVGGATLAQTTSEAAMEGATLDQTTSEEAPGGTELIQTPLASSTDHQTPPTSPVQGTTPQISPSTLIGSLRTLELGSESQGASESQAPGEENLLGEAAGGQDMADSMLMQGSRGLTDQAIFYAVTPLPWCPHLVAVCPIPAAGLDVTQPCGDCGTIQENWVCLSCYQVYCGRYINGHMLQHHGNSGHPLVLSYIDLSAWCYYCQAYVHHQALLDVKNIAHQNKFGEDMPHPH
UniProt P19474: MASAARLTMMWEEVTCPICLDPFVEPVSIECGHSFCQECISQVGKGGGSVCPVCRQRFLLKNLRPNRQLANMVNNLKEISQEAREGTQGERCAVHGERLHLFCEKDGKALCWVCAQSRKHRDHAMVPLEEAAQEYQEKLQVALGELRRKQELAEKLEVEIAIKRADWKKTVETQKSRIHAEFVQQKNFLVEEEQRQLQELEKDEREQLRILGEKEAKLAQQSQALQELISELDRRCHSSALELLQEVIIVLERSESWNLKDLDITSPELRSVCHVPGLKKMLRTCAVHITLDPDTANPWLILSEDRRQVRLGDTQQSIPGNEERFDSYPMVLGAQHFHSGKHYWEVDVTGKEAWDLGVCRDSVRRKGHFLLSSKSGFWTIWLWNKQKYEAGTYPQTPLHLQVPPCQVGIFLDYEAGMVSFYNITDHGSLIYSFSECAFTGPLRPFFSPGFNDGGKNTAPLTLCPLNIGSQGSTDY

The target of test [1] is V5-tagged GAC (glutaminase C), wild type (human) (UniProt O94925).
For test [2], the target named is V5-tagged GAC K311Q (acetylation-mimetic mutant) (human) (UniProt O94925).
Test [3] addresses V5-tagged GAC (glutaminase C), wild type (human) (UniProt O94925). The source holds these as a separate data set.

Like-named read-outs stand apart in the source and are kept apart here. These are yes or no findings as the source states them, for the method shown. In cells and extracts the contact can be indirect. Some results given as binding are weak or reduced against the parent protein; the word gives no strength.

As for “HDAC6 (from UniProt Q9UBN7 1-1215) (enzyme)”, in test [1], the binding result was “no binding”. In the case of “TRIM21 (Tripartite motif containing-21) (from UniProt P19474 1-475) (enzyme)”, the binding result in test [2] and in test [1] was “binds” in each case.

B1: HDAC7 (enzyme, UniProt Q8WUI4 1-952)
chain: MDLRVGQRPPVEPPPEPTLLALQRPQRLHHHLFLAGLQQQRSVEPMRLSMDTPMPELQVGPQEQELRQLLHKDKSKRSAVASSVVKQKLAEVILKKQQAALERTVHPNSPGIPYRTLEPLETEGATRSMLSSFLPPVPSLPSDPPEHFPLRKTVSEPNLKLRYKPKKSLERRKNPLLRKESAPPSLRRRPAETLGDSSPSSSSTPASGCSSPNDSEHGPNPILGSEALLGQRLRLQETSVAPFALPTVSLLPAITLGLPAPARADSDRRTHPTLGPRGPILGSPHTPLFLPHGLEPEAGGTLPSRLQPILLLDPSGSHAPLLTVPGLGPLPFHFAQSLMTTERLSGSGLHWPLSRTRSEPLPPSATAPPPPGPMQPRLEQLKTHVQVIKRSAKPSEKPRLRQIPSAEDLETDGGGPGQVVDDGLEHRELGHGQPEARGPAPLQQHPQVLLWEQQRLAGRLPRGSTGDTVLLPLAQGGHRPLSRAQSSPAAPASLSAPEPASQARVLSSSETPARTLPFTTGLIYDSVMLKHQCSCGDNSRHPEHAGRIQSIWSRLQERGLRSQCECLRGRKASLEELQSVHSERHVLLYGTNPLSRLKLDNGKLAGLLAQRMFVMLPCGGVGVDTDTIWNELHSSNAARWAAGSVTDLAFKVASRELKNGFAVVRPPGHHADHSTAMGFCFFNSVAIACRQLQQQSKASKILIVDWDVHHGNGTQQTFYQDPSVLYISLHRHDDGNFFPGSGAVDEVGAGSGEGFNVNVAWAGGLDPPMGDPEYLAAFRIVVMPIAREFSPDLVLVSAGFDAAEGHPAPLGGYHVSAKCFGYMTQQLMNLAGGAVVLALEGGHDLTAICDASEACVAALLGNRVDPLSEEGWKQKPNLNAIRSLEAVIRVHSKYWGCMQRLASCPDSWVPRVPGADKEEVEAVTALASLSVGILAEDRPSEQLVEEEEPMNL
As to B1, the binding result in test [3] is “no binding”.

B2: HDAC10 (enzyme, UniProt Q969S8 1-669)
chain: MGTALVYHEDMTATRLLWDDPECEIERPERLTAALDRLRQRGLEQRCLRLSAREASEEELGLVHSPEYVSLVRETQVLGKEELQALSGQFDAIYFHPSTFHCARLAAGAGLQLVDAVLTGAVQNGLALVRPPGHHGQRAAANGFCVFNNVAIAAAHAKQKHGLHRILVVDWDVHHGQGIQYLFEDDPSVLYFSWHRYEHGRFWPFLRESDADAVGRGQGLGFTVNLPWNQVGMGNADYVAAFLHLLLPLAFEFDPELVLVSAGFDSAIGDPEGQMQATPECFAHLTQLLQVLAGGRVCAVLEGGYHLESLAESVCMTVQTLLGDPAPPLSGPMAPCQSALESIQSARAAQAPHWKSLQQQDVTAVPMSPSSHSPEGRPPPLLPGGPVCKAAASAPSSLLDQPCLCPAPSVRTAVALTTPDITLVLPPDVIQQEASALREETEAWARPHESLAREEALTALGKLLYLLDGMLDGQVNSGIAATPASAAAATLDVAVRRGLSHGAQRLLCVALGQLDRPPDLAHDGRSLWLNIRGKEAAALSMFHVSTPLPVMTGGFLSCILGLVLPLAYGFQPDLVLVALGPGHGLQGPHAALLAAMLRGLAGGRVLALLEENSTPQLAGILARVLNGEAPPSLGPSSVASPEDVQALMYLRGQLEPQWKMLQCHPHLVA
B2: the binding entry in test [3] was “no binding”.

Values taken from PMC9295053.
